# Laboratory results: PubChem BioAssay AID1508597 (Cure First, 2020)
# Assay: 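Survival screen with siRNA in ovarian cancer cells derived from patients, with or without rucaparib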 (primary screen)
# Cell system: human ovarian carcinoma lines grown from tumours: OCI-P5x (papillary serous) and OCI-C5x (clear cell)
# Reagent: siRNA pool against human genes, 1.25 pmol siRNA per well
# Duration: 72 h or 96 h, depending on the cell culture
# Conditions: rucaparib 20 µM (about IC30) or vehicle, present until read-out
# Rucaparib or vehicle: Rucaparib
# Cell line: OCI-C5x (clear cell)
# Measurement: 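Luminescent ATP-based viability assay read 72 or 96 h after transfection, depending on culture, given as normalised percent viability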
# Direction: viability, normalised: higher = more viable cells remaining
# Hit rule: 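a well counts as a hit if its normalised viability is under 80 percent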
# Calls: active = viability under 80%; inactive = viability 80% or more
# Shown is an unselected part of the about 2,100 reagents, under one of the conditions tested. 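Calls flag viability under 80% in either arm, not effects specific to rucaparib; the reference for percent is not stated.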 Reagent sequences are not shown. Not given: the 100% reference.
Target gene,PubChem SID,technical replicate,"viability, normalised (%)",Call
RRM2,SID405528260,1,41.1,active
RRM2,SID405528260,2,33.4,active
RRM2,SID405528260,3,39.5,active
TDG,SID405528325,1,57.9,active
TDG,SID405528325,2,46.8,active
TDG,SID405528325,3,69.5,active
SMARCE1,SID405527337,1,25.2,active
SMARCE1,SID405527337,2,46.3,active
SMARCE1,SID405527337,3,31.9,active
GINS1,SID405526815,1,59.5,active
GINS1,SID405526815,2,47.3,active
GINS1,SID405526815,3,47.5,active

Continued, starting with the last 3 of the part before.
Target gene,PubChem SID,technical replicate,"viability, normalised (%)",Call
GINS1,SID405526815,1,59.5,active
GINS1,SID405526815,2,47.3,active
GINS1,SID405526815,3,47.5,active
DDR1,SID405527857,1,43.5,active
DDR1,SID405527857,2,46.1,active
DDR1,SID405527857,3,41,active
MAP4K4,SID405527504,1,45,active
MAP4K4,SID405527504,2,65.1,active
MAP4K4,SID405527504,3,35.9,active
PPM1D,SID405526339,1,70.1,active
PPM1D,SID405526339,2,71.8,active
PPM1D,SID405526339,3,77.2,active
QPCT,SID405528467,1,71.7,active
QPCT,SID405528467,2,65.5,active
QPCT,SID405528467,3,47.8,active
